Here are results for one substance from article PMC4651308.

Sequences of proteins named here, by UniProt entry; tags and fusion partners are left off. A change or cut given only in a name is not applied to a line headed by its entry.
UniProt O75030: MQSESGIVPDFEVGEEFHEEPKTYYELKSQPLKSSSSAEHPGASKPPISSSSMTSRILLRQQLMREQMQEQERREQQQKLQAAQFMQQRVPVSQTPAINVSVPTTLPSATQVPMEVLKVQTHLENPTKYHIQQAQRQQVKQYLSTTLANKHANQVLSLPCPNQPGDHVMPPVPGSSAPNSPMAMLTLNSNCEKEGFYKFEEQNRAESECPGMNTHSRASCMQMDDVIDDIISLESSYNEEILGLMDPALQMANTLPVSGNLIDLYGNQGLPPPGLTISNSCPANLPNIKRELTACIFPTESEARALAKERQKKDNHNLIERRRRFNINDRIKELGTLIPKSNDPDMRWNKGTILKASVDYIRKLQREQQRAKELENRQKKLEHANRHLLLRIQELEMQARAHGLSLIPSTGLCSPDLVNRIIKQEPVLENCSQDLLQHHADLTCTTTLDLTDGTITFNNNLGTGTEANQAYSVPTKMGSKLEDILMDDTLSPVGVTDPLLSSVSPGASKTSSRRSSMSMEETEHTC

No constants are given. Whether binding was seen depends on the method and setting. In cells and extracts the contact can be indirect. Binding calls can cover weak binding; strength is not graded here.

The test addresses Flag-tagged full-length MITF (microphthalmia-associated transcription factor) (human) (UniProt O75030). Kind of test: co-IP; HeLa cells co-transfected with pcDNA3.1-LEF-1-HA and pCMV-3×Flag-MITF; lysis in RIPA buffer (150 mM NaCl, 50 mM Tris pH 8.0, 1% Nonidet P-40, 2 mM EDTA, 10% glycerol); IP with anti-Flag M2 antibody and protein G agarose overnight at 4°C, normal mouse IgG as negative control; blot with ….

With “HA-tagged full-length LEF-1 (lymphoid enhancer-binding factor 1) (from UniProt Q9UJU2-1 1-399)”, the binding result is recorded as “binds”.
